Test results reported in PubChem BioAssay AID1347075 (National Center for Advancing Translational Sciences (NCATS), 2019).
Among all 400,000 compounds or so, about 5,500 (1.4%) were called active. Inconclusive means that the source gave no clear call. Such entries were picked first, then a sample of the others. Calls follow the shape of the dose curve; as a rule, active = well fitted cell-killing curve with a large enough effect; inconclusive = small, poorly fitted or top-dose-only effect, or effect the other way; inactive = flat fitted curve, though single readings scatter. Potencies beside an inconclusive call are fits to weak or partial responses and may not hold up.

Experiment: qHTS assay for MDR1-selective chemotherapeutics: Primary screen using the parental adenocarcinoma cell KB-3-1; also: nearly all actives have a fitted effect of over 60% in size
Conditions: KB-3-1 viability, CellTiter-Glo ATP luminescence, 72 h; activity change, negative = cytotoxic: at 46.1 µM (top of the series)
In short: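 Cytotoxicity measured as CellTiter-Glo luminescence after 72 h at 37 C. Compound titrations were pinned onto drug-naive KB-3-1 parental adenocarcinoma cells grown in DMEM with 10% FBS, and normalized data fitted to concentration-response curves.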
% is scaled to controls: 0 for no effect and ±100 for the full control effect; potency is read from the fitted curve at half-maximal effect.

| Compound | activity change, negative = cytotoxic | Potency |
| --- | --- | --- |
| COc1cc2c(cc1OC)C(c1ccc(-c3ccccc3Cl)o1)=NCC2 | inactive: 0% | – |
| Cc1ccccc1-c1cc(C(=O)n2cccn2)c2cc(Cl)ccc2n1 | – | inconclusive: 35.5 µM [cytotoxic, single point] |
| O=C(Nc1ccccc1N1CCCCC1)c1ccc([N+](=O)[O-])o1 | – | inconclusive: 29.1 µM [cytotoxic, single point] |
| CCOc1ccc2ccccc2c1/C=N/NC(=O)CNC(=O)Cc1ccccc1 | inactive: 0% | – |
| O=C(Oc1ccc(Cl)c2cccnc12)N1CCCCC1 | inactive: -6.86% | – |
| COc1ccccc1CC(=O)NCc1nn(-c2ccccc2)nc1C | inactive: -2.39% | – |
| CCOC(=O)C1=CN(Cc2ccco2)S(=O)(=O)N(C)C1c1ccc(C(F)(F)F)cc1 (centres undefined) | – | inconclusive: 0.0058 µM [rising, full curve] |
| CC(=NNc1nc2ccccc2o1)c1ncccn1 | – | active: 1.84 µM |
| O=C(Nc1ccccc1)Nc1ccc(S(=O)(=O)N2CCCCC2)cc1 | – | inconclusive: 16.4 µM [cytotoxic, partial curve] |
| CN(Cc1cn(Cc2cccc(Cl)c2)nn1)C1CN(Cc2cn(Cc3cccc(Cl)c3)nn2)S(=O)(=O)C1 (centres undefined) | inactive: 4.05% | – |
| Cn1nnnc1SCCNC(=O)C1CCC(=O)N(CCc2cccc(F)c2)C1 (centres undefined) | inactive: -0.794% | – |
| Cc1ccc(NC(=O)c2cc(N3C(=O)C4CCCCC4C3=O)ccc2N2CCOCC2)cc1 (centres undefined) | – | inconclusive: 29.1 µM [rising, single point] |
| Cc1cc(C)c2nc(NNC(=O)c3ccc(S(=O)(=O)N4CCCC(C)C4)cc3)sc2c1 (centres undefined) | – | active: 4.11 µM |
| CC(C)(C)CC(C)(C)N=C1Nc2ccc([N+](=O)[O-])cc2N[C@]12C[C@H]1CCCC(=O)N3CC[C@@H](C2)[C@@H]13 | – | inconclusive: 29.1 µM [cytotoxic, single point] |
| CC12CCC(=O)N1C(C(=O)NNC(=O)c1cccc(Cl)c1)CS2 (centres undefined) | inconclusive: -37.9% | – |
| CN(C)c1ccc(CNS(=O)(=O)c2csc(C(N)=O)c2)cc1 | – | inconclusive: 18.4 µM [cytotoxic, partial curve, poor fit] |
| Cc1ccccc1-c1ccc2c(c1)O[C@@H](CN(C)C(=O)Nc1ccc(C(F)(F)F)cc1)[C@H](C)CN([C@@H](C)CO)S2(=O)=O | – | inconclusive: 18.4 µM [cytotoxic, single point] |
| CCCCC[C@@H](C)N1C[C@@H](COCc2ccccc2)Oc2cc(N3CC[C@@H](N(C)C)C3)ccc2S1(=O)=O | – | inconclusive: 29.1 µM [cytotoxic, single point] |
| CCOC(=O)c1c(CN2CCCCC2C)oc2ccc(OC)cc12 (centres undefined) | – | inconclusive: 18.4 µM [cytotoxic, single point] |

Complete entries, looked up by structure.
Cc1ccc(NC(=O)c2cc(N3C(=O)C4CCCCC4C3=O)ccc2N2CCOCC2)cc1 (centres undefined) in the list: Potency: inconclusive: 29.1 µM [rising, single point]
CC12CCC(=O)N1C(C(=O)NNC(=O)c1cccc(Cl)c1)CS2 (centres undefined) in the list: activity change, negative = cytotoxic: inconclusive: -37.9%
